Data as given in PubChem BioAssay AID602196 (INSERM, 2012)

Assay: 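Knock-downs that protect lung cancer cells from cisplatin or sensitise them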
Cells: human A549 lung cancer cells
Reagent: siRNA pair against human genes
Duration: 48 h transfection before cisplatin; time from cisplatin to read-out not stated
Challenge: cisplatin at a dose killing half of control-siRNA cells; exact dose and duration not given
Measurement: 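Cisplatin cell death as a shift from the 50% death seen with control siRNA; siRNAs toxic or growth-blocking alone scored 0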
Direction: two-siRNA summed score (-2 to +2): higher = both siRNAs protect from cisplatin killing; -2 means both sensitise; mean protection from cisplatin (shift in death) and protection from cisplatin (shift in death), siRNA C and protection from cisplatin (shift in death), siRNA D: higher = protection from cisplatin killing
Active means: 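siRNAs harmful alone (LDH or WST-1) get 0; others get +1 for less and -1 for more cisplatin killing; genes are active when the two siRNAs give the same sign, summing to ±2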
Calls: active = both siRNAs shift cisplatin killing the same way; inactive = no consistent shift, or siRNA harmful alone
This is a random part of about 23,000 deposited reagents. Of all reagents, 455 (2%) got an active call. 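Active includes both protection and sensitisation; some change values fall well beyond the stated -50 to +50 range.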 Unmarked entries are inactive. No sequences are given here. Not given: the amount of reagent.

gene	two-siRNA summed score (-2 to +2)	mean protection from cisplatin (shift in death) (%)	protection from cisplatin (shift in death), siRNA C (%)	protection from cisplatin (shift in death), siRNA D (%)
ARID3A (GeneID 1820)	0	1.8	-1.2	4.7
FGF17 (GeneID 8822)	0	3.4	10.3	-3.5
LOC440857	0	11.9	3.7	20.1
FOXA2 (GeneID 3170)	1	24.9	20.2	29.7
SEMA3B (GeneID 7869)	0	11.9	19.9	4
CDKL5 (GeneID 6792)	1	24.8	30	19.7
NRG2 (GeneID 9542)	0	5.5	19.8	-8.8
FLRT1 (GeneID 23769)	-1	-15.1	-19.1	-11.1
DSC1 (GeneID 1823)	0	-1.2	-1	-1.4
OR5H1 (GeneID 26341)	1	22.8	14.6	31

An excerpt from above, limited to “protection from cisplatin (shift in death), siRNA D (%)”.
FOXA2 (GeneID 3170)	29.7
SEMA3B (GeneID 7869)	4

More entries:
gene	two-siRNA summed score (-2 to +2)	mean protection from cisplatin (shift in death) (%)	protection from cisplatin (shift in death), siRNA C (%)	protection from cisplatin (shift in death), siRNA D (%)
PITPNB (GeneID 23760)	0	4	4.5	3.4
ACOT6 (GeneID 641372)	0	16.8	23.6	10
TXN (GeneID 7295)	0	18.8	21.6	16.1
LOC387991	1	14.8	6.6	23
SCD5 (GeneID 79966)	0	4.9	2.2	7.5
LOC388277	0	-5.1	-1.1	-9
NARS2 (GeneID 79731)	0	13.2	13.7	12.7
ST3GAL5 (GeneID 8869)	1	11.8	9.2	14.4
TNFSF14 (GeneID 8740)	0	0.4	-5.9	6.6
SLC10A3 (GeneID 8273)	0	-15	-17	-13.1
FAM193B (GeneID 54540)	0	-4.9	-16	6.1
ITPKC (GeneID 80271)	0	-2.6	4.2	-9.4
OR4A15 (GeneID 81328)	0	-9.7	-23.2	3.9
